These are yes or no findings as the source states them, for the method shown. In cells and extracts the contact can be indirect. Some results given as binding are weak or reduced against the parent protein; the word gives no strength. Where a sequence is shown, tags or fusion partners need not be part of it.
Biological target: T1, Flag-Aurora-A (UniProt O14965)
T1 sequence: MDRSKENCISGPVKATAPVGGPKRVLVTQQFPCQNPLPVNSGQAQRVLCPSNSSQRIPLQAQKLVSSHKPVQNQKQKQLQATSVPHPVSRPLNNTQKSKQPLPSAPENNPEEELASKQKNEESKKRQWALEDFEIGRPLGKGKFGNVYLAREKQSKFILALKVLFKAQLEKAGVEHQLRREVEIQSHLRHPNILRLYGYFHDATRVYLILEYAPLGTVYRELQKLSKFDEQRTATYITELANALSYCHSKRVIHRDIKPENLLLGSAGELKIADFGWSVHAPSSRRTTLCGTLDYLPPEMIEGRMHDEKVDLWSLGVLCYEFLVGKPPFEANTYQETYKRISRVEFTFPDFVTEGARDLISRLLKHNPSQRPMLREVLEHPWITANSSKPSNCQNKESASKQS
Assay: co-IP; HEK293 cells co-transfected with pcDNA3.1-GADD45A and Flag-Aurora-A (or empty Flag vector); anti-Flag immunoprecipitates blotted with anti-GADD45A or anti-Flag antibodies

B1: GADD45A (Growth arrest and DNA-damage-inducible gene 45 alpha) (protein, UniProt P24522-1 1-165)
chain: MTLEEFSAGEQKTERMDKVGDALEEVLSKALSQRTITVGVYEAAKLLNVDPDNVVLCLLAADEDDDRDVALQIHFTLIQAFCCENDINILRVSNPGRLAELLLLETDAGPAASEGAEQPPDLHCVLVTNPHSSQWKDPALSQLICFCRESRYMDQWVPVINLPER
binding: binds
